# Reference: PubChem BioAssay AID262 (DTP/NCI, 2004)
# The list shows only some results of the screen, not a fair sample: its compounds were picked by chemical class. Other doses and runs of a compound may be missing. T/C is the treated group as % of the vehicle group. Schedule codes are those of the source, taken here to give the interval after Q, in days (D) or hours (H), and the number of doses after X. Some T/C values are followed by the survivors on the day toxicity was checked; without a count or a note in brackets, all were alive then. Some entries give survivors of the animals treated and no T/C: the source files T/C as zero there, which appears to mark a toxic dose or a test without result, not a measured value. Counts of survivors are from the toxicity check, whose day is not always given; animals may have died later.
# System: LX-1 lung xenograft sc, nude mice, tumor weight
# Assay: NCI In Vivo Anticancer Drug Screen. Data for tumor model Human Lung LX-1 Xenograft (subcutaneous) in NU/NU Swiss (nude) mice
# Settings: T/C endpoint: optimum tumor weight change, schedule: Q04DX003 (ip), higher T/C = larger tumour
# Description: The antitumor activity of compounds was measured in mice bearing transplantable tumors. Survival or tumor size were measured and the results are expressed as the measurement made in the treated group (T) divided by the measurement made in the vehicle treated control group (C). The tumor model used in this assay is Human Lung LX-1 Xenograft (subcutaneous) in NU/NU Swiss (nude) mice
smiles,measurement,setting,value
Nc1cc([As]=O)ccc1O (stereo not given),T/C,"dose: 50.0 mg/kg/injection, vehicle: saline with Tween-80, evaluated on day 38",88 % of control
same,survivor count,"dose: 100.0 mg/kg/injection, vehicle: saline with Tween-80",2 of 5 on day 38
same,survivor count,"dose: 200.0 mg/kg/injection, vehicle: saline with Tween-80",0 of 5 on day 38
C[As](C)SC1OC(CO)C(O)C(O)C1O (stereo not given),T/C,"dose: 3.0 mg/kg/injection, vehicle: saline, evaluated on day 34",49 % of control [4 of 5 alive on day 34]
same,survivor count,"dose: 6.0 mg/kg/injection, vehicle: saline",3 of 5 on day 34
same,T/C,"dose: 12.0 mg/kg/injection, vehicle: saline, evaluated on day 34",72 % of control
CC1(C)CN1P(=O)(Nc1ncccn1)N1CC1(C)C (stereo not given),T/C,"dose: 50.0 mg/kg/injection, vehicle: saline, evaluated on day 40",67 % of control
same,T/C,"dose: 100.0 mg/kg/injection, vehicle: saline, evaluated on day 40",44 % of control [4 of 5 alive on day 40]
same,T/C,"dose: 200.0 mg/kg/injection, vehicle: saline, evaluated on day 40",44 % of control
same,survivor count,"dose: 400.0 mg/kg/injection, vehicle: saline",0 of 5 on day 40
